Among the data in PubChem BioAssay AID330 (DTP/NCI, 2004) are survivor count and T/C values, retold here.

The experiment concerns P388 leukemia ip, CD2F1 mice, survival T/C. Description: NCI In Vivo Anticancer Drug Screen. Data for tumor model P388 Leukemia (intraperitoneal) in CD2F1 (CDF1) mice. Conditions: T/C endpoint: median survival time, higher T/C = longer survival.
[1] abbreviates: dose: 100.0 mg/kg/injection, schedule: Q01DX005 (ip), vehicle: Klucel (hydroxypropylcellulose) (HPC).
Setting [2] is: dose: 200.0 mg/kg/injection, schedule: Q01DX005 (ip), vehicle: Klucel (hydroxypropylcellulose) (HPC).
[3] abbreviates: dose: 50.0 mg/kg/injection, schedule: Q01DX005 (ip), vehicle: saline with Tween-80.
[4] abbreviates: dose: 100.0 mg/kg/injection, schedule: Q01DX005 (ip), vehicle: saline with Tween-80.
Setting [5] is: dose: 200.0 mg/kg/injection, schedule: Q01DX005 (ip), vehicle: saline with Tween-80.
[6] abbreviates: dose: 50.0 mg/kg/injection, schedule: Q01DX005 (ip), vehicle: Klucel (hydroxypropylcellulose) (HPC).
Setting [7] is: dose: 400.0 mg/kg/injection, schedule: Q04DX003 (ip), vehicle: Klucel (hydroxypropylcellulose) (HPC).
[8] abbreviates: dose: 200.0 mg/kg/injection, schedule: Q01DX009 (ip), vehicle: saline with Tween-80.

The list does not hold the whole screen: it is rich in T/C values a quarter to a half above the control, in often repeated tests (any T/C) and in doses without a T/C. Other doses and runs of a compound stand elsewhere. T/C: endpoint of the treated group in % of that of the vehicle group. Some doses have a count of surviving animals in place of a T/C: the source files T/C as zero there, which appears to mark a toxic dose or a test without result, not a measured value. Some survivor counts are full or nearly so, which does not show that the dose was tolerated: the source hardly ever lists a survival T/C far under the control, and the zero likely stands for such cases as well. Counts of survivors are from the toxicity check (mostly the fifth day) where no day follows; animals may have died later. Schedules are NCI's codes, taken here to give the interval after Q, in days (D) or hours (H), and the number of doses after X. Some entries hold several experiments; their values stand side by side, smallest first. Where survival is the endpoint, this PubChem deposit counts one and a half times the control or more as active, and values a quarter to a half above the control carry no call in these data; other NCI protocols may use other cut-offs. Signs of the kind (2×) give the number of equal values in this list.

For the compound `CCc1nc(N)nc(N)c1-c1ccc(N(C)C)cc1`, the survivor count under setting [1] was 0 of 6 and the survivor count under setting [2] is 0 of 6.

For `CCCC[P+](CCCC)(CCCC)CCN1C(=O)c2ccccc2C1=O`, the survivor count is, setting by setting: (dose: 200.0 mg/kg/injection, schedule: Q01DX009 (ip), vehicle: water) 0 of 6; (dose: 400.0 mg/kg/injection, schedule: Q01DX009 (ip), vehicle: water) 0 of 6.

With `CCn1c(Cl)c(/C=N/NC(N)=S)c2ccccc21`, under “dose: 400.0 mg/kg/injection, schedule: Q01DX001 (ip), vehicle: Klucel (hydroxypropylcellulose) (HPC)”, the survivor count is 4 of 6.

For the compound `CC1(C)CC(=O)C(CSc2ccccc2)C(=O)C1`, the survivor count reads like this: (dose: 100.0 mg/kg/injection, schedule: Q01DX001 (ip), vehicle: Klucel (hydroxypropylcellulose) (HPC)) 0 of 6; (dose: 200.0 mg/kg/injection, schedule: Q01DX001 (ip), vehicle: Klucel (hydroxypropylcellulose) (HPC)) 1 of 6.

Regarding `CCN(CC)CCCNc1ccc(C)c2sc3ccccc3c(=O)c12`, the survivor count runs as follows: (dose: 100.0 mg/kg/injection, schedule: Q01DX005 (ip), vehicle: saline) 1 of 5; (dose: 200.0 mg/kg/injection, schedule: Q01DX005 (ip), vehicle: saline) 0 of 5.

For `CCc1nc(N)nc(N)c1-c1ccc(N2CC[N+](C)(C)CC2)cc1`, the survivor count is 0 of 6 (dose: 1.88 mg/kg/injection, schedule: Q01DX005 (ip), vehicle: saline with Tween-80); 0 of 6 (dose: 3.75 mg/kg/injection, schedule: Q01DX005 (ip), vehicle: saline with Tween-80); 0 of 6 (dose: 7.5 mg/kg/injection, schedule: Q01DX005 (ip), vehicle: saline with Tween-80); 0 of 6 (dose: 15.0 mg/kg/injection, schedule: Q01DX005 (ip), vehicle: saline with Tween-80); 0 of 6 (dose: 30.0 mg/kg/injection, schedule: Q01DX005 (ip), vehicle: saline with Tween-80); 0 of 6 (dose: 60.0 mg/kg/injection, schedule: Q01DX005 (ip), vehicle: saline with Tween-80). Moreover, the survivor count (dose: 120.0 mg/kg/injection, schedule: Q01DX005 (ip), vehicle: saline with Tween-80) is 0 of 6 and the survivor count (dose: 240.0 mg/kg/injection, schedule: Q01DX005 (ip), vehicle: saline with Tween-80) is given as 0 of 6.

For `Cc1c2cccc(Sc3ccccc3)c2c2c3c(cccc13)[S+](c1ccccc1)C2` (stereo not given), the survivor count was 6 of 6 (dose: 25.0 mg/kg/injection, schedule: Q01DX009 (ip), vehicle: saline with Tween-80); 0 of 6 (dose: 50.0 mg/kg/injection, schedule: Q01DX009 (ip), vehicle: saline with Tween-80); 0 of 6 (dose: 100.0 mg/kg/injection, schedule: Q01DX009 (ip), vehicle: saline with Tween-80).

`CC1CCCC(C2CC3CCCCC3C(N)[N-]2)[N-]1.O=[N+]([O-])O.O=[N+]([O-])O.[Cu+2]` (stereo not given): the survivor count is, setting by setting: (dose: 25.0 mg/kg/injection, schedule: Q04DX002 (ip), vehicle: suspension in saline) 2 of 6; (dose: 100.0 mg/kg/injection, schedule: Q04DX002 (ip), vehicle: suspension in saline) 0 of 6; (dose: 200.0 mg/kg/injection, schedule: Q04DX002 (ip), vehicle: suspension in saline) 0 of 6; (dose: 400.0 mg/kg/injection, schedule: Q04DX002 (ip), vehicle: suspension in saline) 0 of 6.

Take `C[C@]12CC[C@@H]3c4ccc(O)c(N)c4CC[C@H]3[C@@H]1CC[C@@H]2O`: the survivor count under setting [3] is listed as 6 of 6.

Consider `O=C(CN1CC1)NCCCCCCCCNC(=O)CN1CC1`, for which the survivor count was 4 of 6 (dose: 75.0 mg/kg/injection, schedule: Q04DX003 (ip), vehicle: saline with Tween-80) and 4 of 6 (dose: 100.0 mg/kg/injection, schedule: Q04DX003 (ip), vehicle: saline with Tween-80).

As for `O=C1CN(c2cccc(Cl)c2)C(=O)CN1/N=C/c1cccnc1`, the survivor count by setting is: under setting [4], 6 of 6; under setting [5], 6 of 6.

Turning to `N=[N+]=NC1C(O)C(CO)OC1n1cnc2c(N)ncnc21` (stereo not given), the T/C reads like this: (dose: 20.0 mg/kg/injection, schedule: Q03HX016 (ip), vehicle: Klucel (hydroxypropylcellulose) (HPC)) 140 % of control; (dose: 40.0 mg/kg/injection, schedule: Q03HX016 (ip), vehicle: Klucel (hydroxypropylcellulose) (HPC)) 141 % of control.

Consider `O=C(NCCF)Oc1cc(Cl)c(Cl)cc1Cl`, for which the T/C was 128 % of control (2×) (dose: 25.0 mg/kg/injection, schedule: Q01DX005 (ip), vehicle: Klucel (hydroxypropylcellulose) (HPC)) and 127 % of control under setting [6]. The survivor count reads like this: under setting [6], 0 of 6 and 5 of 6; under setting [1], 0 of 6; under setting [2], 0 of 6.

Consider `COc1cc2c(c(=O)c3ccccc3n2C)c2c1c(=O)c1ccccc1n2C`, for which the survivor count (dose: 240.0 mg/kg/injection, schedule: Q01DX005 (ip), vehicle: Klucel (hydroxypropylcellulose) (HPC)) was 1 of 6.

Consider `COC(=O)c1cc(OC(C)=O)c2cc3c(cc2c1-c1cc(OC)c(OC)c(OC)c1)OCO3`, for which, under setting [7], the survivor count is reported as 3 of 6.

In the case of `Cc1ccc([NH-])c(C(=O)O)c1.Cc1ccc([NH-])c(C(=O)O)c1.[Cu+2]`, the survivor count is, setting by setting: under setting [3], 0 of 5; under setting [4], 0 of 5; under setting [5], 0 of 5.

On to `Cc1cc(=O)c2ccccc2s1`, for which the survivor count under setting [8] is given as 3 of 6.

On to `N#CC(C#N)=C(c1ccccc1)c1ccccc1`, for which, for the setting “dose: 400.0 mg/kg/injection, schedule: Q01DX009 (ip), vehicle: Klucel (hydroxypropylcellulose) (HPC)”, the survivor count is 1 of 6.

For `CCCCC(CC)CN1CN(CC(CC)CCCC)CC(C)(N)C1` (stereo not given), the survivor count under setting [5] is given as 1 of 5.

In the case of `CCS/C(=C/[P+](c1ccccc1)(c1ccccc1)c1ccccc1)SC`, the survivor count (dose: 12.5 mg/kg/injection, schedule: Q01DX005 (ip), vehicle: saline with Tween-80) is reported as 6 of 6; the survivor count (dose: 25.0 mg/kg/injection, schedule: Q01DX005 (ip), vehicle: saline with Tween-80) is 6 of 6; the survivor count under setting [3] was 2 of 6; the survivor count under setting [4] was 0 of 5; the survivor count under setting [5] is 0 of 6.

Take `CC1(C)CC(=O)c2c(oc3cc4c5c(oc4cc23)CC(C)(C)CC5=O)C1`: the survivor count under setting [3] is 5 of 5 and 6 of 6.

On to `CCCCCCCC/C=C\CCCCCCCC[N+]1([O-])CCOCC1`, for which the survivor count (dose: 200.0 mg/kg/injection, schedule: Q01DX009 (ip), vehicle: saline) is on record as 6 of 6.

Turning to `O=CC(NC(=O)CCCc1ccc(N(CCCl)CCCl)cc1)C(O)C(O)C(O)CO` (stereo not given), the survivor count is, setting by setting: (dose: 100.0 mg/kg/injection, schedule: Q01DX009 (ip), vehicle: Klucel (hydroxypropylcellulose) (HPC)) 6 of 6; (dose: 200.0 mg/kg/injection, schedule: Q01DX009 (ip), vehicle: Klucel (hydroxypropylcellulose) (HPC)) 0 of 6.

Turning to `[Cu+2].[NH-]CC(=O)NC(Cc1ccccc1)C(=O)O.[NH-]CC(=O)NC(Cc1ccccc1)C(=O)O` (stereo not given), the survivor count reads like this: (dose: 100.0 mg/kg/injection, schedule: Q04DX003 (ip), vehicle: saline) 0 of 6; (dose: 200.0 mg/kg/injection, schedule: Q04DX003 (ip), vehicle: saline) 0 of 6; (dose: 400.0 mg/kg/injection, schedule: Q04DX003 (ip), vehicle: saline) 0 of 6.

With `O=[N+]([O-])c1ccccc1/C(=N\O)c1cccs1`, under “dose: 400.0 mg/kg/injection, schedule: Q04DX002 (ip), vehicle: Klucel (hydroxypropylcellulose) (HPC)”, the survivor count is 5 of 5.

With `COc1ccc(OC)c(/C=C/C2=C(C)C(=O)CC(c3cc(OC)ccc3OC)C2C)c1` (stereo not given), the survivor count under setting [7] is given as 6 of 6.

As for `O=C(Nc1ccccc1)OCc1ccc(OCc2ccccc2)cc1`, the survivor count under setting [8] is given as 6 of 6.

On to `Cc1cc(N2CCOCC2)ccc1N=Nc1nc2ccccc2s1`, for which the survivor count (dose: 400.0 mg/kg/injection, schedule: Q01DX001 (ip), vehicle: saline) is reported as 6 of 6.
